# This is one part of the list.
# Columns and labels:
# Experiment in all cases: glycan array binding signal (z-score within array); higher = stronger binding
# Details in all cases: glycan notation: IUPAC condensed, linker removed
# [1] = target: Neu5Ac(a2-6)GlcNAc(b1-4)GlcNAc(b1-4)GlcNAc
# Summary of the method: (§1)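 The Consortium for Functional Glycomics database supplied 3228 glycan arrays, of which those lacking an available protein sequence were dropped. The binding signal, a within-array Z-score, was averaged across arrays of the same protein sequence and across linkers. Negative scores can be read as non-binding.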
# [2] = target: Neu5Ac(a2-8)Neu5Ac
# Summary of the method: as §1
# [3] = target: Neu5Ac(a2-8)Neu5Ac(a2-3)Gal(b1-3)GalNAc(b1-4)[Neu5Ac(a2-3)]Gal(b1-4)Glc
# Summary of the method: as §1
# [4] = target: Neu5Ac(a2-8)Neu5Ac(a2-3)Gal(b1-3)GalNAc(b1-4)[Neu5Ac(a2-8)Neu5Ac(a2-3)]Gal(b1-4)Glc
# Summary of the method: as §1
# [5] = target: Neu5Ac(a2-8)Neu5Ac(a2-3)Gal(b1-4)Glc
# Summary of the method: as §1
# [6] = target: Neu5Ac(a2-8)Neu5Ac(a2-3)Gal(b1-4)GlcNAc
# Summary of the method: as §1
# [7] = target: Neu5Ac(a2-8)Neu5Ac(a2-3)[Gal(b1-3)GalNAc(b1-4)]Gal(b1-4)Glc
# Summary of the method: as §1
# [8] = target: Neu5Ac(a2-8)Neu5Ac(a2-3)[GalNAc(b1-4)]Gal(b1-4)Glc
# Summary of the method: as §1
# [9] = target: Neu5Ac(a2-8)Neu5Ac(a2-8)Neu5Ac
# Summary of the method: as §1
# [10] = target: Neu5Ac(a2-8)Neu5Ac(a2-8)Neu5Ac(a2-3)Gal(b1-4)Glc
# Summary of the method: as §1
# [11] = target: Neu5Ac(a2-8)Neu5Ac(a2-8)Neu5Ac(a2-3)[Gal(b1-3)GalNAc(b1-4)]Gal(b1-4)Glc
# Summary of the method: as §1
# [12] = target: Neu5Ac(a2-8)Neu5Ac(a2-8)Neu5Ac(a2-3)[GalNAc(b1-4)]Gal(b1-4)Glc
# Summary of the method: as §1
# [13] = target: Neu5Ac(a2-8)Neu5Ac(a2-8)Neu5Ac(a2-8)Neu5Ac(a2-3)[GalNAc(b1-4)]Gal(b1-4)Glc
# Summary of the method: as §1
# [14] = target: Neu5Ac(a2-8)Neu5Gc(a2-3)Gal(b1-4)GlcNAc
# Summary of the method: as §1
# [15] = target: Neu5Ac(b2-6)Gal(b1-4)GlcNAc
# Summary of the method: as §1
# [16] = target: Neu5Ac(b2-6)GalNAc
# Summary of the method: as §1
# [17] = target: Neu5Ac9Ac(a2-3)Gal(b1-4)GlcNAc
# Summary of the method: as §1
# [18] = target: Neu5Ac9Ac(a2-6)Gal(b1-4)GlcNAc
# Summary of the method: as §1
# [19] = target: Neu5Gc(a2-3)Gal(b1-3)GlcNAc
# Summary of the method: as §1
# [20] = target: Neu5Gc(a2-3)Gal(b1-3)[Fuc(a1-4)]GlcNAc
# Summary of the method: as §1
# [21] = target: Neu5Gc(a2-3)Gal(b1-4)Glc
# Summary of the method: as §1
# [22] = target: Neu5Gc(a2-3)Gal(b1-4)GlcNAc
# Summary of the method: as §1
# [23] = target: Neu5Gc(a2-3)Gal(b1-4)GlcNAc(b1-3)Gal(b1-4)GlcNAc(b1-2)Man(a1-3)[Neu5Gc(a2-3)Gal(b1-4)GlcNAc(b1-3)Gal(b1-4)GlcNAc(b1-2)Man(a1-6)]Man(b1-4)GlcNAc(b1-4)GlcNAc
# Summary of the method: as §1
# [24] = target: Neu5Gc(a2-3)Gal(b1-4)[Fuc(a1-3)]GlcNAc
# Summary of the method: as §1
# [25] = target: Neu5Gc(a2-6)Gal(b1-4)GlcNAc
# Summary of the method: as §1
# [26] = target: Neu5Gc(a2-6)GalNAc
# Summary of the method: as §1
# [27] = target: Neu5Gc(a2-8)Neu5Ac(a2-3)Gal(b1-4)GlcNAc
# Summary of the method: as §1
# [28] = target: Neu5Gc(a2-8)Neu5Gc(a2-3)Gal(b1-4)GlcNAc
# Summary of the method: as §1
# [29] = target: Neu5Gc(a2-8)Neu5Gc(a2-3)Gal(b1-4)GlcNAc(b1-3)Gal(b1-4)GlcNAc
# Summary of the method: as §1
# [30] = target: Neu5Gc(a2-8)Neu5Gc(a2-6)Gal(b1-4)GlcNAc
# Summary of the method: as §1
binder,measurement,setting,value
"Protein L(A-C2) (Finegoldia magna), Q51912 (protein) ADEPIDLEKLEEKRDKENVGNLPKFDNEVKDGSENPMAKYPDFDDEASTRFETENNEFEEKKVVSDNFFDQSEHPFVENKEETPETPETDSEEEVTIKANLIFANGSTQTAEFKGTFEKATSEAYAYADTLKKDNGEYTVDVADKGYTLNIKFAGKEKTPEEPKEEVTIKANLIYADGKTQTAEFKGTFEEATAEAYRYADALKKDNGEYTVDVADKGYTLNIKFAGKEKTPEEPKEEVTIKANLIYADGKTQTAEFKGTFEEATAEAYRYADLLAKENGKYTVDVADKGYTLNIKFAGKEKTPEEPKEEVTIKANLIYADGKTQTAEFKGTFAEATAEAYRYADLLAKENGKYTADLEDGGYTINIRFAGKKVDEKPEEKEQVTIKENIYFEDGTVQTATFKGTFAEATAEAYRYADLLSKEHGKYTADLEDGGYTINIRFAGKEEPEETPEKPEVQDGYASYEEAEAAAKEALKNDDVNKSYTIRQGADGRYYYVLSPVEAEEEKPEAQNGYATYEEAEAAAKKALENDPINKSYSIRQGADGRYYYVLSPVEAE",glycan array binding signal (z-score),[1],-0.71
same,glycan array binding signal (z-score),[2],-0.275
same,glycan array binding signal (z-score),[3],-0.888
same,glycan array binding signal (z-score),[4],-0.257
same,glycan array binding signal (z-score),[5],-1.31
same,glycan array binding signal (z-score),[6],-1.02
same,glycan array binding signal (z-score),[7],0.898
same,glycan array binding signal (z-score),[8],0.868
same,glycan array binding signal (z-score),[9],-0.849
same,glycan array binding signal (z-score),[10],-0.481
same,glycan array binding signal (z-score),[11],-0.46
same,glycan array binding signal (z-score),[12],-0.494
same,glycan array binding signal (z-score),[13],0.283
same,glycan array binding signal (z-score),[14],-0.658
same,glycan array binding signal (z-score),[15],-0.736
same,glycan array binding signal (z-score),[16],-0.832
same,glycan array binding signal (z-score),[17],-0.66
same,glycan array binding signal (z-score),[18],-0.809
same,glycan array binding signal (z-score),[19],-0.028
same,glycan array binding signal (z-score),[20],-0.858
same,glycan array binding signal (z-score),[21],-0.493
same,glycan array binding signal (z-score),[22],-1.16
same,glycan array binding signal (z-score),[23],0.473
same,glycan array binding signal (z-score),[24],-0.672
same,glycan array binding signal (z-score),[25],-0.86
same,glycan array binding signal (z-score),[26],-0.164
same,glycan array binding signal (z-score),[27],0.183
same,glycan array binding signal (z-score),[28],-0.82
same,glycan array binding signal (z-score),[29],-1.01
same,glycan array binding signal (z-score),[30],0.244

# — the supplement of paper PMC8728848
